Assay results published in US20120231005A1 (Merck Sharp & Dohme, published 2012).
No constants are given. Whether binding was seen depends on the method and setting. Some binding calls cover weakened binding; strength is not graded here.

Protein sequences, listed by entry. Tags and fused reporters are not part of them. Lines headed by an entry give the natural chain unless they say otherwise; changes in a name come on top. Chains listed by the source or under a name are the forms on record and can include a tag or linker.
UniProt Q8NBP7: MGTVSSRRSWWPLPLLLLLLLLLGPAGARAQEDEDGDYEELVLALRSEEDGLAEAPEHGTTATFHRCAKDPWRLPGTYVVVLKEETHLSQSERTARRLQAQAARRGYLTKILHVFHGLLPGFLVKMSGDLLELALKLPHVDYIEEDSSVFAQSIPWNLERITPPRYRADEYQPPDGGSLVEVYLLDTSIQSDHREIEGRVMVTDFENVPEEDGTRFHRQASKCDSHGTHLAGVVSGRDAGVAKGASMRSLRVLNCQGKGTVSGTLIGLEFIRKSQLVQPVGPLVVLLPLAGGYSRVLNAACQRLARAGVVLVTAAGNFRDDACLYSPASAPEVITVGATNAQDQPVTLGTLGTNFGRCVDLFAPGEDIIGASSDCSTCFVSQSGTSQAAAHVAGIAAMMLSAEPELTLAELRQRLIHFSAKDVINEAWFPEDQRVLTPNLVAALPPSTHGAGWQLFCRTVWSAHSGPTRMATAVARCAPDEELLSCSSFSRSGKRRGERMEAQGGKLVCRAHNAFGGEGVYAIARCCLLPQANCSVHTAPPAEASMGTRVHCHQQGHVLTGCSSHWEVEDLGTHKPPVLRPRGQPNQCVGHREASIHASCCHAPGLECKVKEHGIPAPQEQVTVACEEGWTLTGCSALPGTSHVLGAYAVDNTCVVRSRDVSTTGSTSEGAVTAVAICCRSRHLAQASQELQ
M1 (Q8NBP7, form named): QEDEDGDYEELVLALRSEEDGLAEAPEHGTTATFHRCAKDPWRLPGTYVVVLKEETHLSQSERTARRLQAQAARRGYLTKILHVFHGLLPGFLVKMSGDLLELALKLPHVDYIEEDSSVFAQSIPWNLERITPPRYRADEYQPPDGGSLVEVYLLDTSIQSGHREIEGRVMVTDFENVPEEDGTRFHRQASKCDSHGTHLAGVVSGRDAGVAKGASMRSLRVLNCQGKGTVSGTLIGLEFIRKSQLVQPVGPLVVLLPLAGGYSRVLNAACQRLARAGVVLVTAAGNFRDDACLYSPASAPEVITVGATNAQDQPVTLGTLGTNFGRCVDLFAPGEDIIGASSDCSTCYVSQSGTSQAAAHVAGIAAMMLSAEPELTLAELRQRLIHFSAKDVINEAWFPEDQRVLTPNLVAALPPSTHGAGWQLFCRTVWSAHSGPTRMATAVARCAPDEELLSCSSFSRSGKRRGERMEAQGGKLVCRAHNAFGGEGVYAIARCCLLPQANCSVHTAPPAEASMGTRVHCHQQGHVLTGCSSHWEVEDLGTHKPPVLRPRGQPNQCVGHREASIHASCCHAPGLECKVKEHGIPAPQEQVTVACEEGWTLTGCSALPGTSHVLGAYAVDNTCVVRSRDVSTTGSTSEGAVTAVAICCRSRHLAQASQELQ

Legend:
human PCSK9 [1] = biological target: T1, human PCSK9 (human, UniProt Q8NBP7 31-692, limits assumed); experiment: affinity measurement, IgG2
human PCSK9 [2] = biological target: T1, human PCSK9; experiment: ELISA: PCSK9 protein coated at 5 ug/ml, IgG titrated, anti-human kappa-HRP, OD450
M1 (human) = M1 (human) (UniProt Q8NBP7); experiment: as above
M5 (human) = M5 (human) (UniProt Q8NBP7); experiment: as above
M4 (human) = M4 (human) (UniProt Q8NBP7); experiment: as above
M3 (human) = M3 (human) (UniProt Q8NBP7); experiment: as above
human PCSK9 [3] = biological target: T1, human PCSK9; experiment: recap of the Example 9 ELISA
human PCSK9 [4] = biological target: T1, human PCSK9; experiment: Biacore epitope binning on immobilised human PCSK9

Measured: binding

B1: AX1DG IgG2 (antibody, V domains shown)
VH: EVQLLESGGGLVQPGGSLRLSCKASGFTFTSYYMHWVRQAPGKGLEWIGRINPDSGSTKYNEKFKGRATISRDNSKNTLYLQMNSLRAEDTAVYYCARGGRLSWDFDVWGQGTLVTVSS
VL: DIQMTQSPSSLSASVGDRVTITCRASQDISRYLAWYQQKPGKAPKLLIYAASSLQSGVPSRFSGSGSGTDFTLTISSLQPEDFATYYCAAYDYSLGGYVFGGGTKVEIK
notes: IgG2; also called AXIDG
not listed: human PCSK9 [4]
binds: all other assays above

B2: AX191 Fab (Fab, V domains shown)
VH: EVQLLESGGGLVQPGGSLRLSCKASGYTFSSYWMHWVRQAPGKGLEWIGRIDPYNGGTKYNEKFKGKATISRDNSKNTLYLQMNSLRAEDTAVYYCARYGYYLGSYAMDYWGQGTLVTVSS
VL: DIQMTQSPSSLSASVGDRVTITCRASQDISKYLAWYQQKPGKAPKLLIYAASSLQSGVPSRFSGSGSGTDFTLTISSLQPEDFATYYCQAYDYSSSAYVFGGGTKVEIK
binds: human PCSK9 [4]
